Measured values: patent US10328051B2, “Proline or proline derivatives for the treatment of dementia” (priority 2014, dated 2019)

Test: Pre-dose endogenous plasma concentrations of CHP and THP in healthy volunteers (Study 0202-71), HPLC
Type: in vivo, human
Conditions: healthy subjects; for Mean endogenous concentration in plasma, pre-dose: across all dose groups, 24 readings
Procedure: Example 8—Study Title: Determination of Pre-Dose Endogenous Concentrations of CHP in Healthy Volunteers (Study 0202 71) (FIG. 11)
According to the examples in this invention, the following ICH-GCP Clinical Phase I study has been performed in healthy subjects for the assessment of the pharmacokinetic profiles of CHP and THP and the determination of the pre-dose endogenous CHP blood plasma concentrations, which were measured for all healthy volunteers directly before CHP administration using a validated, sensitive and selective HPLC bioanalytical method.
Example 9—Study Title: Determination of Pre-Dose Endogenous Concentrations of THP in Healthy Volunteers (Study 0202 71)—(FIG. 11)
According to the examples in this invention, the following ICH-GCP Clinical Phase I study has been performed in healthy volunteers for the assessment of the pharmacokinetic profiles of THP and to determine the pre-dose endogenous THP plasma concentrations, which were measured for all healthy volunteers directly before CHP administration using a validated, sensitive and selective HPLC bioanalytical method. This was performed before both CHP administrations (i.e. for 2.0 g and 3.0 g). • The mean endogenous THP concentration in healthy subjects, calculated across all dose groups, was 0.97±1.15 μg CHP/ml of plasma.

**Q.** Which “Mean endogenous concentration in plasma, pre-dose” value does the source give for `O=C(O)[C@@H]1C[C@H](O)CN1` [CHP, cis-4-hydroxy-L-proline] here?
**A.** 0.71±0.56 μg CHP/ml of plasma

**Q.** What about the “Endogenous CHP concentration in blood (approximately 2-fold the plasma concentration)” value (pre-dose) of the same compound?
**A.** 1.420±1.12 μg CHP/ml blood

**Q.** And the “Endogenous CHP concentration in blood, molar equivalent” value (pre-dose)?
**A.** 10.834±8.54 μM CHP/ml blood

**Q.** What does the source list for `O=C(O)[C@@H]1C[C@@H](O)CN1` [THP, trans-4-hydroxy-L-proline]?
**A.** Pre-dose endogenous concentration as a percentage of the average Cmax: 8.1%±9.6%; Mean endogenous concentration in plasma, pre-dose: 0.97±1.15 μg CHP/ml of plasma; Endogenous THP concentration in blood (approximately 2-fold the plasma concentration) (pre-dose): 1.94±2.3 μg THP/ml blood; Endogenous THP concentration in blood, molar equivalent (pre-dose): 14.80±17.5 μM THP/ml blood
